# This is one part of the list. Most values lie at the level of the controls, where differences are scatter.
# Protein sequences, listed by entry. Tags and fused reporters are not part of them. Lines headed by an entry give the natural chain unless they say otherwise; changes in a name come on top.
# UniProt P06615: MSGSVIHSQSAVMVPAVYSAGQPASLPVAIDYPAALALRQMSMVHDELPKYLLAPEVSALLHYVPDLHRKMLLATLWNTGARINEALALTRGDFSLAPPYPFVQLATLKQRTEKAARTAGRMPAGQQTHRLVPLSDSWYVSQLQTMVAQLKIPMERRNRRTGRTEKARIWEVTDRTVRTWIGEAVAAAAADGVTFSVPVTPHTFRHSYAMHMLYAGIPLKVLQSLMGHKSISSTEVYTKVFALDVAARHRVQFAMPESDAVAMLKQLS
# UniProt P02932: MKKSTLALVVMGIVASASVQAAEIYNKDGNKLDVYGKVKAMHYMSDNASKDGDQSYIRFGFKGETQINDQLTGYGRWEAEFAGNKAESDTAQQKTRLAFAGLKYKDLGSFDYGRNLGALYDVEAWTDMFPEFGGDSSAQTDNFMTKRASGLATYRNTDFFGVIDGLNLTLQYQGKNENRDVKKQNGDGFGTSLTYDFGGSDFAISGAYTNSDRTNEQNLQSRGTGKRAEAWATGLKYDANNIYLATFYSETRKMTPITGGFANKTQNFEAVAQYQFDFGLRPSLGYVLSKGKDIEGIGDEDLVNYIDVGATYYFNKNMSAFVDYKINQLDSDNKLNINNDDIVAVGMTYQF
# UniProt P09127: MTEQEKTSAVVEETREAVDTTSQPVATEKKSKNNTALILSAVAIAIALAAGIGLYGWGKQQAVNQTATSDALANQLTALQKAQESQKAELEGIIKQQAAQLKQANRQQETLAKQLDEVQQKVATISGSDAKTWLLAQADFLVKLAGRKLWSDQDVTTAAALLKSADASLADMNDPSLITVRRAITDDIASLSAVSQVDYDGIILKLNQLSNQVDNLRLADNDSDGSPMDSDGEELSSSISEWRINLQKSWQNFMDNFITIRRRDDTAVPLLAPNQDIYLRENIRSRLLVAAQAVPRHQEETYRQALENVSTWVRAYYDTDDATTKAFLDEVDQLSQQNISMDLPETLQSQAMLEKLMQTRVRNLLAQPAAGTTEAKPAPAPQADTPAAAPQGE
# UniProt P00936: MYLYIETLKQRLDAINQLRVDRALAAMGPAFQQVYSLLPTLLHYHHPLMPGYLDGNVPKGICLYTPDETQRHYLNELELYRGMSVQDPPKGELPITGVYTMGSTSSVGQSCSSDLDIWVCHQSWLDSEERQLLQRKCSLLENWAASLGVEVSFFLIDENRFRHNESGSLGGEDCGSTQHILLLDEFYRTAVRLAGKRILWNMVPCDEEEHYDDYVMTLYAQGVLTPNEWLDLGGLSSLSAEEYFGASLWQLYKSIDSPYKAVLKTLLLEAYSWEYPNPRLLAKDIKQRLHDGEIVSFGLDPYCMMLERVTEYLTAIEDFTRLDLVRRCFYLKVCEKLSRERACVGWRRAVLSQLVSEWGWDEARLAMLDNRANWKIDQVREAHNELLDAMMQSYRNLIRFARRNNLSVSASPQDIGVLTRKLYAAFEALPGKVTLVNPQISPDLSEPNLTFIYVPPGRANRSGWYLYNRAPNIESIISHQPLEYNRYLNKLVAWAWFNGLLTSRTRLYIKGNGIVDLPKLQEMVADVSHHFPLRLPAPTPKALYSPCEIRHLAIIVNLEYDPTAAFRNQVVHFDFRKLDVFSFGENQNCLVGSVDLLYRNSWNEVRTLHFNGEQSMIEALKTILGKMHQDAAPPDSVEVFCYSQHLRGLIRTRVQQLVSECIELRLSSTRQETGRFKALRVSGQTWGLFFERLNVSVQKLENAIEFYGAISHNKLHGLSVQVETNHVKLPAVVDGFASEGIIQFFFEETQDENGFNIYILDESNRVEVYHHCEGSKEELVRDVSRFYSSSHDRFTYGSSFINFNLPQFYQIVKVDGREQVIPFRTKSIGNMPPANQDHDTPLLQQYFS
# UniProt P05804: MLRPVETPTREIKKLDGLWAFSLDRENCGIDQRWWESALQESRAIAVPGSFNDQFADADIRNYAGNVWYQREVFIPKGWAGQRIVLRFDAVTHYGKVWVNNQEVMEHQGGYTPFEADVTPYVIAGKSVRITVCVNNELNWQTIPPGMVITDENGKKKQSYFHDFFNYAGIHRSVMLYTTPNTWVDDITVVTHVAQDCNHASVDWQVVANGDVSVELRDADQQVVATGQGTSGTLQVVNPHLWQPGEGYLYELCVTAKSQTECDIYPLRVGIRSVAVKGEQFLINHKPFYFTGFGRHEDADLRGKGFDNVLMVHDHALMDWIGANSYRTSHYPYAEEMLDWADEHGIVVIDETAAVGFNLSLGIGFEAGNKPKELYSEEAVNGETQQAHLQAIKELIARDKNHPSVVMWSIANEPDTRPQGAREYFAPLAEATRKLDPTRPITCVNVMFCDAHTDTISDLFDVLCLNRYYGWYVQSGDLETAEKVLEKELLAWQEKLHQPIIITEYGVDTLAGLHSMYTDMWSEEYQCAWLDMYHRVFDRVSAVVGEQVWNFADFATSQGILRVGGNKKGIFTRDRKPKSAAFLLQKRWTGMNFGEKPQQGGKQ
# UniProt P03835: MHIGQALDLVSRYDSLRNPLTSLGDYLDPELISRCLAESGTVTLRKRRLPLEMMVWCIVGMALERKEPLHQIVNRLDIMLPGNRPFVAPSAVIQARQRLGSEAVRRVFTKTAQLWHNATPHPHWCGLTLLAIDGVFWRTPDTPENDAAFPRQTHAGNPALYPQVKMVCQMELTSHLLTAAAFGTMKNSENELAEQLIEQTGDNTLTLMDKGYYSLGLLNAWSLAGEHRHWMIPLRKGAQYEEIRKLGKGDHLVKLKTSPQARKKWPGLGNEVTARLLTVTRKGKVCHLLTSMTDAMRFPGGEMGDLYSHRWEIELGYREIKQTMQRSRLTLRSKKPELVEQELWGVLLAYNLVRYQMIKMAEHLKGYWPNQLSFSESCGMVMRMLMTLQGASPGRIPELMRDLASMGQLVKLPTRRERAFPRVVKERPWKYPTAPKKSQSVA
# UniProt P05055: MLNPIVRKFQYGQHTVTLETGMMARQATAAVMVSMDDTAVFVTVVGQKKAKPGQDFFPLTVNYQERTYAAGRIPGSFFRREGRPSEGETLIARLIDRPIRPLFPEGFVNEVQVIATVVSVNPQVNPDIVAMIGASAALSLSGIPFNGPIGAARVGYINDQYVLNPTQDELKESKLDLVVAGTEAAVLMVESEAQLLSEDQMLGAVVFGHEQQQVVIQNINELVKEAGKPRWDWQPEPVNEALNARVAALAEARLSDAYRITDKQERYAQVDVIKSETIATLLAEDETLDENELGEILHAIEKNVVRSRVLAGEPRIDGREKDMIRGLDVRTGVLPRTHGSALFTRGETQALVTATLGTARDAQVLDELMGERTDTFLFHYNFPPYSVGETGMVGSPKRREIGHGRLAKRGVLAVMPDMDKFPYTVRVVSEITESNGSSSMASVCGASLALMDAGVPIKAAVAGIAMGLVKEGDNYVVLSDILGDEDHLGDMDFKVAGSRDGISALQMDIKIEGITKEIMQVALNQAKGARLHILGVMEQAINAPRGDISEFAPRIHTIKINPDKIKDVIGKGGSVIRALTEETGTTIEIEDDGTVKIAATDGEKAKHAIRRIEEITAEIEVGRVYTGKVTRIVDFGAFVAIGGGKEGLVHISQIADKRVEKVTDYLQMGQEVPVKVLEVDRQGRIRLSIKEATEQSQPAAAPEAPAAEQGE
# UniProt P09099: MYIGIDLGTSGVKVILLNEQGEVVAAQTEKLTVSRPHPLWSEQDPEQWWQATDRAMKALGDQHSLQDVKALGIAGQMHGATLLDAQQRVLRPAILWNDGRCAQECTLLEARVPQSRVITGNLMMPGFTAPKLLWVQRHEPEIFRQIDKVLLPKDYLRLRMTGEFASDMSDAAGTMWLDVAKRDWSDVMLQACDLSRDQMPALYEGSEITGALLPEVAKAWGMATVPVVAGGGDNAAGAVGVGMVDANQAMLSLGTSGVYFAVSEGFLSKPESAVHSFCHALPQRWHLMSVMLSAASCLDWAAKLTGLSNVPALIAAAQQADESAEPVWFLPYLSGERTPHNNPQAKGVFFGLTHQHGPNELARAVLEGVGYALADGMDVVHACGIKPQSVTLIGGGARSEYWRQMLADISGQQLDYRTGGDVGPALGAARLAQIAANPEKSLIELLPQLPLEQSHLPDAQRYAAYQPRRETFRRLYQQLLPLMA
# UniProt P00887: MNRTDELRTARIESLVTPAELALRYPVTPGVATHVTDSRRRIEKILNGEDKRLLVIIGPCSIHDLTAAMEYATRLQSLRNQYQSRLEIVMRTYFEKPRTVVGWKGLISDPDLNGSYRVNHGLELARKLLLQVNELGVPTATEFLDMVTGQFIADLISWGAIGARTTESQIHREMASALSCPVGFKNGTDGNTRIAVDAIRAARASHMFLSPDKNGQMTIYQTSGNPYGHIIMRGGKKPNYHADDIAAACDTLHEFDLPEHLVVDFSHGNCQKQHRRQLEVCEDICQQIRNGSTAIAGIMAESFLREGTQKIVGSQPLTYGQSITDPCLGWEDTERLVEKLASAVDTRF
# UniProt P00914: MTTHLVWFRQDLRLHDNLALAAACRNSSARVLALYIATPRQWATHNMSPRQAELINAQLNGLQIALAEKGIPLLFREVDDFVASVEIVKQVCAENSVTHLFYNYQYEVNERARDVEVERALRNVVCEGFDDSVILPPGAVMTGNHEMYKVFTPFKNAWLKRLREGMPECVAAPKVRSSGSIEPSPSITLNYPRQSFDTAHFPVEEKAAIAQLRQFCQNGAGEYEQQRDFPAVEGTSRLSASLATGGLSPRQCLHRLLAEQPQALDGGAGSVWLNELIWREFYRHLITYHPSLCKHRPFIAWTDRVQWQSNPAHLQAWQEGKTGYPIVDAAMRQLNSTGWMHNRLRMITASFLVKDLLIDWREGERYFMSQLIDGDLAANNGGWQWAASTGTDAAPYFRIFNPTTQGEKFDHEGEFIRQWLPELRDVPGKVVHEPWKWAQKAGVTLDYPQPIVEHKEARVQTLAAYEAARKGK
# UniProt P08194: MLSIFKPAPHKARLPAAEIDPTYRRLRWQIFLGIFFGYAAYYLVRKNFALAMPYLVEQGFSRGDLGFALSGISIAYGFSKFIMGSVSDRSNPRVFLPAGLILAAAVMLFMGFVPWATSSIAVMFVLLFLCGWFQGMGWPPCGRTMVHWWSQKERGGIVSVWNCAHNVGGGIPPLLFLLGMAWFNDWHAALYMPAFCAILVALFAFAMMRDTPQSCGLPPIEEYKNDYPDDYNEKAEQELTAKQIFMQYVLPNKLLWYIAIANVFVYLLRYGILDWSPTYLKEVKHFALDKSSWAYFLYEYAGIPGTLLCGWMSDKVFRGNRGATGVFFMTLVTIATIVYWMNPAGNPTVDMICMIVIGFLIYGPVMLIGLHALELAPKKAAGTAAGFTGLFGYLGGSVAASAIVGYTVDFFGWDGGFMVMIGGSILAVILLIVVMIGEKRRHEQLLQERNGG
# UniProt P06987: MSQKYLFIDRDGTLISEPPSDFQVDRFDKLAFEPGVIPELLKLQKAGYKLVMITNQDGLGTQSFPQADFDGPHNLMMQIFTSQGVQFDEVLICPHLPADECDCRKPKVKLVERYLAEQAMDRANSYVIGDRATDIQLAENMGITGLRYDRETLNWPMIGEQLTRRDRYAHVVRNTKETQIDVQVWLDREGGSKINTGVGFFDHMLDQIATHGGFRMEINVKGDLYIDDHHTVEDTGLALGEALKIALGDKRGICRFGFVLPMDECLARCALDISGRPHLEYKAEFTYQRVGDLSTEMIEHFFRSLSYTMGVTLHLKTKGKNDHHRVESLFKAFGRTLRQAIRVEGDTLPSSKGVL
# UniProt P03007: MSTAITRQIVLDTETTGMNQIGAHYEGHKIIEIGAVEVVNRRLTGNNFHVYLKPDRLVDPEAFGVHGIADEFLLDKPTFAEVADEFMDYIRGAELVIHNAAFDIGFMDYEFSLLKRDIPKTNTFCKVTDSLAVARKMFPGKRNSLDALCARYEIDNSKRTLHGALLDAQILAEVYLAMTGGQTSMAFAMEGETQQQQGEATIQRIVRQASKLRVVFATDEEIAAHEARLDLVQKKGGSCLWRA
# UniProt P00448: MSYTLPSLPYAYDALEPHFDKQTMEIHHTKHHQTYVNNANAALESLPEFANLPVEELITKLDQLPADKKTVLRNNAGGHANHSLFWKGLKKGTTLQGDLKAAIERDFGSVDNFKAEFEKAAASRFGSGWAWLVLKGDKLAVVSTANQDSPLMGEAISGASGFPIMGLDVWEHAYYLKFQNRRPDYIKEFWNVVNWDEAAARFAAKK
# UniProt P09147: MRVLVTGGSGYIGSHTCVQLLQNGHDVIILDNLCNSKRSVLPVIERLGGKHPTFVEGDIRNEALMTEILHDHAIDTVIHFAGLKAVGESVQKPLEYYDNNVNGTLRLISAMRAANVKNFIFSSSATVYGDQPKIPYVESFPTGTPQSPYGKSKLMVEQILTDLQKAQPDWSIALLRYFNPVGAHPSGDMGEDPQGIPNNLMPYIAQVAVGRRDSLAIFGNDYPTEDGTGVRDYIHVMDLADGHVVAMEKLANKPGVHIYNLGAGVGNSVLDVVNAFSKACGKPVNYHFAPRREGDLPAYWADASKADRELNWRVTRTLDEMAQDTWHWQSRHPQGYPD
# Compound: CC1(C)S[C@@H]2[C@H](NC(=O)[C@H](N)c3ccccc3)C(=O)N2[C@H]1C(=O)O [ampicillin]
# Test: log2 fold change of tryptic peptide abundance, ligand vs vehicle (limited proteolysis) (log2 ratio); higher = more trypsin-susceptible (destabilized)
# Settings: ligand concentration: 10 uM; sample: E. coli crude lysate
row,Target,log2 fold change
1,"UniProt P09831 (peptide sequence: ILHSAETDDDLK, peptide start residue: 406)",-0.224
2,"UniProt P02930 (peptide sequence: LSNPELRK, peptide start residue: 34)",-0.25
3,"UniProt P07021 (peptide sequence: SNLTTQGLGK, peptide start residue: 125)",0.287
4,"UniProt P09155 (peptide sequence: QEVVAPEDAWR, peptide start residue: 191)",-0.699
5,"UniProt P06615 (peptide sequence: TGRTEKAR, peptide start residue: 161)",-0.235
6,"UniProt P07001 (peptide sequence: AEMELFAAQAK, peptide start residue: 237)",0.146
7,"UniProt P00561 (peptide sequence: HVLHGISLLGQCPDSINAALICR, peptide start residue: 103)",0.0798
8,"UniProt P02932 (peptide sequence: DGNKLDVYGK, peptide start residue: 28)",0.263
9,"UniProt P07395 (peptide sequence: GDLESVLDLTGK, peptide start residue: 619)",0.26
10,"UniProt P00934 (peptide sequence: ADLPLLSHNLPADFAALRK, peptide start residue: 404)",0.277
11,"UniProt P09127 (peptide sequence: SADASLADMNDPSLITVRR, peptide start residue: 164)",-0.426
12,"UniProt P04693 (peptide sequence: VGADFLKR, peptide start residue: 110)",-0.578
13,"UniProt P00936 (peptide sequence: RNNLSVSASPQDIGVLTR, peptide start residue: 403)",-0.194
14,"UniProt P05458 (peptide sequence: VPNKESKK, peptide start residue: 255)",-0.3
15,"UniProt P05804 (peptide sequence: WTGMNFGEKPQQGGK, peptide start residue: 588)",0.258
16,"UniProt P06996 (peptide sequence: AETYTGGLK, peptide start residue: 239)",0.282
17,"UniProt P00895 (peptide sequence: IQASLFAPNEEEKQR, peptide start residue: 193)",-0.588
18,"UniProt P05052 (peptide sequence: LRDEGTSFTEILRDTR, peptide start residue: 173)",-1.01

row,Target,log2 fold change
1,"UniProt P00935 (peptide sequence: AAAGISETLLR, peptide start residue: 351)",0.0616
2,"UniProt P03835 (peptide sequence: SKKPELVEQELWGVLLAYNLVR, peptide start residue: 333)",-0.589
3,"UniProt P00803 (peptide sequence: QAAAQAAAGDSLDK, peptide start residue: 35)",0.122
4,"UniProt P05055 (peptide sequence: RGVLAVMPDMDKFPYTVR, peptide start residue: 409)",-0.559
5,"UniProt P09099 (peptide sequence: LAQIAANPEK, peptide start residue: 431)",-0.287
6,"UniProt P00887 (peptide sequence: VNHGLELARK, peptide start residue: 118)",0.709
7,"UniProt P06864 (peptide sequence: VPLMNEFGEYPHPKPR, peptide start residue: 493)",0.223
8,"UniProt P00914 (peptide sequence: VLALYIATPR, peptide start residue: 31)",-0.558
9,"UniProt P06710 (peptide sequence: MPLPEPEVPR, peptide start residue: 363)",-0.123
10,"UniProt P02358 (peptide sequence: QLAYPINKLHK, peptide start residue: 46)",-0.165
11,"UniProt P00370 (peptide sequence: KLSNNTACVFTGK, peptide start residue: 185)",-0.392
12,"UniProt P08194 (peptide sequence: AEQELTAK, peptide start residue: 235)",0.147
13,"UniProt P06987 (peptide sequence: AEFTYQR, peptide start residue: 283)",-0.112
14,"UniProt P06149 (peptide sequence: HAHDYDYVHR, peptide start residue: 222)",0.44
15,"UniProt P03007 (peptide sequence: VTDSLAVAR, peptide start residue: 127)",-0.29
16,"UniProt P00448 (peptide sequence: QTMEIHHTK, peptide start residue: 22)",-0.519
17,"UniProt P09147 (peptide sequence: ACGKPVNYHFAPR, peptide start residue: 279)",0.125

# Single values from the entries so far.
# In log2 fold change, UniProt P09147 (peptide sequence: ACGKPVNYHFAPR, peptide start residue: 279) shows 0.125
# In log2 fold change, UniProt P00887 (peptide sequence: VNHGLELARK, peptide start residue: 118) shows 0.709
# In log2 fold change, UniProt P00803 (peptide sequence: QAAAQAAAGDSLDK, peptide start residue: 35) shows 0.122

# — the supplement of paper PMC12819154, “High-throughput peptide-centric local stability assay extends protein–ligand identification to membrane proteins, tissues and bacteria” (Nature Structural & Molecular Biology, 2025)
